Experimental data as given in patent US12533330B2, “(2S)-2-aminopentanethioic s-acid for use as medicament and in therapy of amyotrophic lateral sclerosis” (MASSEY VENTURES LIMITED, priority 2020, dated 2026).

Experiments:
[1] = tested on: FUS[1-359]-tg mouse line (FUS-tg); experiment: Onset of paralysis in FUS-tg mouse ALS model; assay type: in vivo; conditions: FUS-tg male mice, six weeks via drinking water from age nine weeks, (I) and (IX) 50 mg/kg/day, Riluzole 8 mg/kg
From the text: (§1) A transgenic FUS[1-359]-tg mouse line (FUS-tg) was used to test the efficacy of the substance of formula (I) in the therapy of amyotrophic lateral sclerosis according to the guidelines set for ALS preclinical studies. Ludolph A C et al. Guidelines for preclinical animal research in ALS/MND: A consensus meeting. Amyotroph Lateral Scler. 2010; 11:38-45. Mutations in DNA/RNA-binding factor (fused-in-sarcoma) FUS cause ALS in humans. The FUS-tg mouse model recapitulates core hallmarks of human ALS in the spinal cord, including neuroinflammation and neurodegeneration, ensuing muscle atrophy and paralysis. Shelkovnikova T A et al. Fused in sarcoma (FUS) protein lacking nuclear localization signal (NLS) and major RNA binding motifs triggers proteinopathy and severe motor phenotype in transgenic mice. J Biol Chem. 2013; 288:25266-25274. Lutz C. Mouse models of ALS: Past, present and future. Brain Res. 2018; 1693:1-10. de Munter J et al. Neuro-Cells therapy improves motor outcomes and suppresses inflammation during experimental syndrome of amyotrophic lateral sclerosis in mice. CNS Neurosci Ther. 2020; 26(5):504-517. […]
The onset of paralysis, a core ALS symptom, was recorded for each FUS-tg mouse. […]

[2] = tested on: FUS[1-359]-tg mouse line (FUS-tg); experiment: Rotarod test in FUS-tg mouse ALS model; assay type: in vivo; conditions: week 5, via drinking water, one-way ANOVA and Tukey's test
From the text: as §1
The motor coordination, strength and balance was recorded for each FUS-tg mouse in the rotarod test. […]

**Q.** With `Nc1nc2ccc(OC(F)(F)F)cc2s1` [Riluzole] as the molecule, how does the “percentage of FUS-tg mice with signs of paralysis on day 95” value [1] read?
**A.** 38%

**Q.** And the “latency to fall in the rotarod test vs. vehicle-treated FUS-tg mice” value [2]?
**A.** no significant difference
